Results are given in words; binding and its absence hold for the method and conditions named. Some entries that bind do so weakly or less than the wild type.
What follows are substances tested against TAR DNA-binding protein 43 (TDP-43) (human (endogenous in post-mortem brain tissue)) (UniProt Q13148) (assay: single-molecule pulldown).

Sequences of proteins named here, by UniProt entry; tags and fusion partners are left off.
UniProt Q13148: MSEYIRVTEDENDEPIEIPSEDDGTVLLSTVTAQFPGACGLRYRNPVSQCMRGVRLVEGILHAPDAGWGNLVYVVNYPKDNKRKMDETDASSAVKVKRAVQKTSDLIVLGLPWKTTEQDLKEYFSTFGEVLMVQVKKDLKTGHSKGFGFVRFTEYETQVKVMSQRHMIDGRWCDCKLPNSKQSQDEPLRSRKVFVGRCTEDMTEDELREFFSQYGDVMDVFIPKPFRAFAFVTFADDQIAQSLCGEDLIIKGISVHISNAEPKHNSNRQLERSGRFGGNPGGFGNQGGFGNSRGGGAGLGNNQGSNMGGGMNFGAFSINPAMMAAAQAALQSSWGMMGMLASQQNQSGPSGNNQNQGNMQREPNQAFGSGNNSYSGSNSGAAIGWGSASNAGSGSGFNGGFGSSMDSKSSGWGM
UniProt P35637: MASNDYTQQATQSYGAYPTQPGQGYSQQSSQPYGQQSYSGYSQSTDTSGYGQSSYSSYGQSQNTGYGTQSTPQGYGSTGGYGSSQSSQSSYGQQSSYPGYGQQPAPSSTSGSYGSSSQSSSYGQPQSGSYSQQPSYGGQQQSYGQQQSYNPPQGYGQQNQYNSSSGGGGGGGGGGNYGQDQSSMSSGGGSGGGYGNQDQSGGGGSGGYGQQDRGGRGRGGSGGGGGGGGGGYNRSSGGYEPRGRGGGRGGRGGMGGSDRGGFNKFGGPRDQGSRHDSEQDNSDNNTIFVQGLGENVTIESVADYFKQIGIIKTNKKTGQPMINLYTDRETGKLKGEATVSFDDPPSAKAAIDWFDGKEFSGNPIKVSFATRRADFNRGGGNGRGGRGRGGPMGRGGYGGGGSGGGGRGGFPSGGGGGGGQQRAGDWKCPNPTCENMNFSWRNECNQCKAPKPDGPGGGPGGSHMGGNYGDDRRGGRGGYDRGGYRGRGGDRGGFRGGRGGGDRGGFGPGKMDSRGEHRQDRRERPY
UniProt P21926: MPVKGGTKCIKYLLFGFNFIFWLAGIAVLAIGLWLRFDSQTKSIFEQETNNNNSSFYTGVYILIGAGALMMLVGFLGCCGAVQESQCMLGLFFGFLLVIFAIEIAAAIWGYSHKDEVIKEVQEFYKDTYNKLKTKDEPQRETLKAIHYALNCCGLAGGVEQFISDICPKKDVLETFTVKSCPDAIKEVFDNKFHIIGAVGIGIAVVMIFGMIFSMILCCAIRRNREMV
UniProt P06748: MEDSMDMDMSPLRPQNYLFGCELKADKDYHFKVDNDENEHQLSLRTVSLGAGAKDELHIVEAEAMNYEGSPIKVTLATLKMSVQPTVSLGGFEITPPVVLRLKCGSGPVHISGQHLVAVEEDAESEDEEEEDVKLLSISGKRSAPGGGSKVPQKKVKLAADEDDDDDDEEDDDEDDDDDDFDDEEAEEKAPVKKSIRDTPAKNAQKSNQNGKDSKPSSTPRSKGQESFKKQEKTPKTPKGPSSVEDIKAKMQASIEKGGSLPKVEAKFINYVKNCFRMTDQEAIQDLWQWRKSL

binding, binds:
FUS (from UniProt P35637 1-526), CD9 (from UniProt P21926 1-228), nucleophosmin (NPM1) (from UniProt P06748 1-294)

— doi:10.1101/2025.03.04.641150
